In paper PMC12362615, “Design, Synthesis, and Cellular Characterization of a New Class of IPMK Kinase Inhibitors” (Journal of Medicinal Chemistry, 2025):

Test system: human U251-MG glioblastoma cells
Assay: RNA-seq transcriptome analysis
Assay type: cell-based
Details: 400 nM, 48 h, vs DMSO
Procedure: DNase-treated RNA prepared from one well of a six-well plate (approximately 10^6 cells) was extracted using the Quick-RNA MiniPrep kit (Zymo Research) from human U251-MG glioblastoma cells (ECACC 09063001) after 48 h of treatment with compound 1. PolyA-selected RNA-seq libraries were prepared and sequenced at the Vanderbilt Technologies for Advanced Genomics (VANTAGE) core on an Illumina NextSeq500. Bases and reads with low-quality scores or reads, were removed, and Illumina library adapter sequences were trimmed using bbDuk (https://jgi.doe.gov/data-and-tools/software-tools/bbtools/bb-tools-user-guide/bbduk-guide/). The resulting files were mapped to hg38 using HiSat2, and poorly mapped reads were removed with SamTools. Reads mapping to RefSeq genes were counted using HTSeq-count and differential expression was assessed using DESeq2 with Apeglm LFC Shrinkage, expressed as compound 1/DMSO in all log 2 fold-change expressions. Gene sets from the Molecular Signatures Database (version 6.1) were used for Gene Set Enrichment Analysis (GSEA).

For `Cc1cc(C)cc(-c2onc3ccc(/C=C/C(=O)O)cc23)c1` [Compound 1, (E)-3-(3-(3,5-Dimethylphenyl)benzo[c]isoxazol-5-yl)acrylic Acid], the “differentially expressed transcripts (p adj < 0.05, log2FC > ±1)” value was 993, the transcripts downregulated was 661 and the transcripts upregulated was 332.
